In patent US20200031785A1, “METHODS FOR TREATING CHRONIC PAIN AND OPIOID DEPENDENCE USING ADENYLYL CYCLASE INHIBITORS” (Purdue Research Foundation, priority 2017, published 2020):
A number of entries come with more than one value. This list holds those alone. There may be further records. Values given together do not match, cause unknown; dose, time, organism, isomer or construct need not be as stated for each record.

By UniProt entry, the sequences of proteins in these tests, tags left out.
UniProt Q08828, whole entry: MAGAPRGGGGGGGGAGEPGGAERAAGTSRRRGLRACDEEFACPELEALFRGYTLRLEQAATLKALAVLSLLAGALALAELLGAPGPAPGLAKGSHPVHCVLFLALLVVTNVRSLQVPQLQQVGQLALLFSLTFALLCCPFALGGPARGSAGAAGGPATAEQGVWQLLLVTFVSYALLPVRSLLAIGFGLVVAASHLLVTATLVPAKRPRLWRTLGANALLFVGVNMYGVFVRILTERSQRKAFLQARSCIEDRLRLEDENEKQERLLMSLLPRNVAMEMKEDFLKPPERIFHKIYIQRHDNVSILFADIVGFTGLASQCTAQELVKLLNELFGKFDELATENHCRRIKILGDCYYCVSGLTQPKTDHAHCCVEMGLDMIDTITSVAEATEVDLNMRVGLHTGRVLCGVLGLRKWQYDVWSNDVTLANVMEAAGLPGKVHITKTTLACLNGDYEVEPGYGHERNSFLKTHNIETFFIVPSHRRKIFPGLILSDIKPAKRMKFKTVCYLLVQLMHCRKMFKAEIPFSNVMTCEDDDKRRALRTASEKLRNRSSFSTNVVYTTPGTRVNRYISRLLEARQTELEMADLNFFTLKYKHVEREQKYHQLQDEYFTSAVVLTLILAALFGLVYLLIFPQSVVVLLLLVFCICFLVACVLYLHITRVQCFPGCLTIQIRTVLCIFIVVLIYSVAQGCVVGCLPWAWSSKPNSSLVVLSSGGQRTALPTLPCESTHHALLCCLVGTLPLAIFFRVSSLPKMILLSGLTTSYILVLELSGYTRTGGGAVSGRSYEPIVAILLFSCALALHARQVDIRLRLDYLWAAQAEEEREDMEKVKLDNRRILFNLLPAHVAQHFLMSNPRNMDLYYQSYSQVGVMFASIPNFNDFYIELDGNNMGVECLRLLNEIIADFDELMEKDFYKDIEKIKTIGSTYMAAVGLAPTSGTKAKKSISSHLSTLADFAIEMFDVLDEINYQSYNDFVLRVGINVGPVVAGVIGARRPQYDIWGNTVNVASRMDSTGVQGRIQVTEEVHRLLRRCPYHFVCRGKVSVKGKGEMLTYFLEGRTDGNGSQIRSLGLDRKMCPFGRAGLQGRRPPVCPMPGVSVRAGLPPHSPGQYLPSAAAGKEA

Target: hAC1 (Homo sapiens, UniProt Q08828)
Test: Cyclic AMP accumulation in HEK cells stably expressing AC1, stimulated with A23187 (HTRF)
Conditions: AC8 IC50/AC1 IC50; in the absence of AC8 IC50, estimate based on IC50 ≥30 μM

In the case of CCc1cc(=O)[nH]c(-n2nc(C)cc2NC(=O)c2ccccc2F)n1 [F2215-0213], the “Selectivity AC1 vs AC8” value is reported as “at least 60 fold and >60-fold”.
